Publication PMC3834828
No constants are given. Whether binding was seen depends on the method and setting. Some results given as binding are weak or reduced against the parent protein; the word gives no strength.

Columns and labels:
Assay in all cases: co-purification (glutathione-Sepharose, Heparin-Sepharose, Superose 12 gel filtration); subunits co-expressed in E. coli from a dicistronic plasmid; buffer A: 50 mM sodium phosphate pH 8, 300 mM NaCl, 2 mM β-mercaptoethanol, 10% glycerol, 0.2% CHAPS; fractions analysed by SDS-PAGE
[1] = target: T1, human MUS81 (hMUS81), wild type, as subunit of the recombinant MUS81-EME1/EME2 complexes (human) (UniProt Q96NY9)
T1 sequence: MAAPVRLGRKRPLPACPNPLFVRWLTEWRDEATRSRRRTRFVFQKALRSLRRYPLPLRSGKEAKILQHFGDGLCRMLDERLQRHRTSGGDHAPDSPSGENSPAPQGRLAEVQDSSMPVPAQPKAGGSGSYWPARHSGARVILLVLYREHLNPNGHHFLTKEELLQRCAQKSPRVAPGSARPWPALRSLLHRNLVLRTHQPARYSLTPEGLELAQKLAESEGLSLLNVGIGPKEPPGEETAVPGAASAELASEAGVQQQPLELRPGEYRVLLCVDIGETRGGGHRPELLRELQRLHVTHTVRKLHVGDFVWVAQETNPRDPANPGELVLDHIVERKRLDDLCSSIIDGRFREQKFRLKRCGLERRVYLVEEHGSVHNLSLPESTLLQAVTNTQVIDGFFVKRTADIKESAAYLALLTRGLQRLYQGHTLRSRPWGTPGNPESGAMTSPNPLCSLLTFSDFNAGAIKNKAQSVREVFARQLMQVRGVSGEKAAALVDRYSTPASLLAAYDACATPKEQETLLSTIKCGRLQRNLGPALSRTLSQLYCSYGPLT

[2] = target: T2, human MUS81 with the WH domain (residues 128-230) deleted (human) (UniProt Q96NY9)
T2 sequence: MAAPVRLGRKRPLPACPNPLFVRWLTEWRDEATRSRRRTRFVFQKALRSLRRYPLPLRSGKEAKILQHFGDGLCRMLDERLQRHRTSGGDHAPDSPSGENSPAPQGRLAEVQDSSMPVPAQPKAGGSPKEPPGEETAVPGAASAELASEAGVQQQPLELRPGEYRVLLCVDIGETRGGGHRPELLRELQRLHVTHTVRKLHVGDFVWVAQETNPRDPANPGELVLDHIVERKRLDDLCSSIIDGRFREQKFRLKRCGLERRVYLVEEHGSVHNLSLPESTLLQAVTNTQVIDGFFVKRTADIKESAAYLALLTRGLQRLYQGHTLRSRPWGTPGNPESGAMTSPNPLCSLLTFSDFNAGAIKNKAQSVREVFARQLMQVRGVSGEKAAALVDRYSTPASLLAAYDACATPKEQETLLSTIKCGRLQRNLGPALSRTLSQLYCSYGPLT

[3] = target: T3, human MUS81 D339N (catalytically impaired) (human) (UniProt Q96NY9)
T3 sequence: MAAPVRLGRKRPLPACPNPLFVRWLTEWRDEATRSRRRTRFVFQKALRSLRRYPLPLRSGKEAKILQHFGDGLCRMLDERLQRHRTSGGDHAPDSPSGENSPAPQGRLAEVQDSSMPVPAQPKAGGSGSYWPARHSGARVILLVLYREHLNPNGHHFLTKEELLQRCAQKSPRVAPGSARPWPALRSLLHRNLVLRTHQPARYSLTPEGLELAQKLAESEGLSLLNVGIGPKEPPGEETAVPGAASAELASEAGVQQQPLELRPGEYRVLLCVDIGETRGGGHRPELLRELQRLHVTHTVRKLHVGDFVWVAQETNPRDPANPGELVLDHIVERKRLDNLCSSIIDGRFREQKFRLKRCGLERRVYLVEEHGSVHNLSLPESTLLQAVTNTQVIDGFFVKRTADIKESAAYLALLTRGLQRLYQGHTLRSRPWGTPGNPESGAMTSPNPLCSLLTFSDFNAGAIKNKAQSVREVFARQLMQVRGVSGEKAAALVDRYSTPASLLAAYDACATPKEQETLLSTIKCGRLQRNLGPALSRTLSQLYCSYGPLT

[4] = target: T4, human MUS81 R186A/R191A (double mutation in helix α3 of the WH domain) (human) (UniProt Q96NY9)
T4 sequence: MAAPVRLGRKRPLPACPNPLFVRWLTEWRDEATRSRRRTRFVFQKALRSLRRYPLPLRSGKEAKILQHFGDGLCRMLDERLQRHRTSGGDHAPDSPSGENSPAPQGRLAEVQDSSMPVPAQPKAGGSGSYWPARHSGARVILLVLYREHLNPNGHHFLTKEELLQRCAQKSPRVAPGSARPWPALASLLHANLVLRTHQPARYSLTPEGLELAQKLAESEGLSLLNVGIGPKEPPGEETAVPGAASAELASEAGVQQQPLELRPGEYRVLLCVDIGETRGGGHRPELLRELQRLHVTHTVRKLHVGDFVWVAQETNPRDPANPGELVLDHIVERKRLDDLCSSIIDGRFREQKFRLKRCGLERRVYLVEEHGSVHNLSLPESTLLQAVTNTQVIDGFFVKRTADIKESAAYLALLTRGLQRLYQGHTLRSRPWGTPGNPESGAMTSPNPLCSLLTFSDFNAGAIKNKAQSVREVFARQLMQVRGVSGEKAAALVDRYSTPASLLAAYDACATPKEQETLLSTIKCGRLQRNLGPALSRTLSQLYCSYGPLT

Measured: binding

B1: human EME1, longer transcript variant EME1(583) (protein, UniProt Q96AY2-2 1-583)
chain: MALKKSSPSLDSGDSDSEELPTFAFLKKEPSSTKRRQPEREEKIVVVDISDCEASCPPAPELFSPPVPEIAETVTQTQPVRLLSSESEDEEEFIPLAQRLTCKFLTHKQLSPEDSSSPVKSVLDHQNNEGASCDWKKPFPKIPEVPLHDTPERSAADNKDLILDPCCQLPAYLSTCPGQSSSLAVTKTNSDILPPQKKTKPSQKVQGRGSHGCRQQRQARQKESTLRRQERKNAALVTRMKAQRPEECLKHIIVVLDPVLLQMEGGGQLLGALQTMECRCVIEAQAVPCSVTWRRRAGPSEDREDWVEEPTVLVLLRAEAFVSMIDNGKQGSLDSTMKGKETLQGFVTDITAKTAGKALSLVIVDQEKCFSLELLFFDFLPCTSAQNPPRRGKQGANKQTKKQQQRQPEASIGSMVSRVDAEEALVDLQLHTEAQAQIVQSWKELADFTCAFTKAVAEAPFKKLRDETTFSFCLESDWAGGVKVDLAGRGLALVWRRQIQQLNRVSLEMASAVVNAYPSPQLLVQAYQQCFSDKERQNLLADIQVRRGEGVTSTSRRIGPELSRRIYLQMTTLQPHLSLDSAD
binds: [1] | [2] | [3]

B2: human EME2 (protein, UniProt A4GXA9-1 1-379)
chain: MARVGPGRAGVSCQGRGRGRGGSGQRRPPTWEISDSDAEDSAGSEAAARARDPAGERRAAAEALRLLRPEQVLKRLAVCVDTAILEDAGADVLMEALEALGCECRIEPQRPARSLRWTRASPDPCPRSLPPEVWAAGEQELLLLLEPEEFLQGVATLTQISGPTHWVPWISPETTARPHLAVIGLDAYLWSRQHVSRGTQQPESPKVAGAEVAVSWPEVEEALVLLQLWANLDVLLVASWQELSRHVCAVTKALAQYPLKQYRESQAFSFCTAGRWAAGEPVARDGAGLQAAWRRQIRQFSRVSPAVADAVVTAFPSPRLLQQALEACSTERERMGLLADLPVPPSEGGRPRRVGPDLSRRICLFLTTANPDLLLDLGS
binds: all assays above
